The other results are listed elsewhere or left out.

Amino acid sequences for entries named in this document (tags omitted). A change or cut given only in a name is not applied to a line headed by its entry.
UniProt Q14728: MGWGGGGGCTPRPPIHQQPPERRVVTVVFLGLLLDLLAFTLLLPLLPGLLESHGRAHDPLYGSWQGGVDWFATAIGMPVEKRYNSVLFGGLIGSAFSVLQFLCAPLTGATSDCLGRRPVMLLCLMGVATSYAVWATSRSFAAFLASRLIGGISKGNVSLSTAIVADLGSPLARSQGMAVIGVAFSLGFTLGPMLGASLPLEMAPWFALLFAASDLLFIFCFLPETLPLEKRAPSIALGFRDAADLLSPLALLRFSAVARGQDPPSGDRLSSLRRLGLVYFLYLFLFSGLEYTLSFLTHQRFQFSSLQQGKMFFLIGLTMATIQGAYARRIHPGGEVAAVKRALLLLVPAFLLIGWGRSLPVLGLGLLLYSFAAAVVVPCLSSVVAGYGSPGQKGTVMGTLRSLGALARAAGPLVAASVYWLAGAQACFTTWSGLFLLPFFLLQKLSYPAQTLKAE
UniProt P51608, whole entry, looked up: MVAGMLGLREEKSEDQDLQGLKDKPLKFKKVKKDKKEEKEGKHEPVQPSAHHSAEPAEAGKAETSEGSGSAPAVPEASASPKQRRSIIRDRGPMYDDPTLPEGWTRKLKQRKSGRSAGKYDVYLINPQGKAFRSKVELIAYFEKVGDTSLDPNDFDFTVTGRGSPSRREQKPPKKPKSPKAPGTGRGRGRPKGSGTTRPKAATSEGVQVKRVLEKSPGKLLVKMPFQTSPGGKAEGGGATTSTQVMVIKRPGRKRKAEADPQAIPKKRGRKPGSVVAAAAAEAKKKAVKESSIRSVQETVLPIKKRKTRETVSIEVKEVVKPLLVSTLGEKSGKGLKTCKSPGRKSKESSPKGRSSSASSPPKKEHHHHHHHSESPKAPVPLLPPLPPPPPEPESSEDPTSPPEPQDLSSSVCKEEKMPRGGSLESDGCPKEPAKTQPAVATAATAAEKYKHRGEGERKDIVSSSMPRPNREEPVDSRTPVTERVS
UniProt P25205: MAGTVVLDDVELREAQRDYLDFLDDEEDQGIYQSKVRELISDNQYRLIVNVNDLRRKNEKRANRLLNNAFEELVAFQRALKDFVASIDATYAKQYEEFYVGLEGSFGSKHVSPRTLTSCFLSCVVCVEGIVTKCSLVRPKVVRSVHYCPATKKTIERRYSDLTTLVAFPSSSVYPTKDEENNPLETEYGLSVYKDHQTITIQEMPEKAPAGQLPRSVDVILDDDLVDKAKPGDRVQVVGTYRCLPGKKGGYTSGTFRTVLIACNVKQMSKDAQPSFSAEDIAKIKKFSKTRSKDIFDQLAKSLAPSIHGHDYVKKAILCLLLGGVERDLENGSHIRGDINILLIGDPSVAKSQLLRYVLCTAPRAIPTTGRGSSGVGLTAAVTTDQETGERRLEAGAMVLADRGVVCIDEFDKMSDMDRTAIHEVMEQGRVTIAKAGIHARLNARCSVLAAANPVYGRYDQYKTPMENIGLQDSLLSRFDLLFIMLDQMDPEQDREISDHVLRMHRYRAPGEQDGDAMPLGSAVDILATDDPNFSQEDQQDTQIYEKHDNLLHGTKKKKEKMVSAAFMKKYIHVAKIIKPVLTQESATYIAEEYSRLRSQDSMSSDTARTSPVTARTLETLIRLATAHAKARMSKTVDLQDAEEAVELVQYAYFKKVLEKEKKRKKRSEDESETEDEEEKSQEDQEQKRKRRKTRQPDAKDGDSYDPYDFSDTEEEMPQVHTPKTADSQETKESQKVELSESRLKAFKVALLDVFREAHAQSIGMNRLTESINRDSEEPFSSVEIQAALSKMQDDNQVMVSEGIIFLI
UniProt P26572: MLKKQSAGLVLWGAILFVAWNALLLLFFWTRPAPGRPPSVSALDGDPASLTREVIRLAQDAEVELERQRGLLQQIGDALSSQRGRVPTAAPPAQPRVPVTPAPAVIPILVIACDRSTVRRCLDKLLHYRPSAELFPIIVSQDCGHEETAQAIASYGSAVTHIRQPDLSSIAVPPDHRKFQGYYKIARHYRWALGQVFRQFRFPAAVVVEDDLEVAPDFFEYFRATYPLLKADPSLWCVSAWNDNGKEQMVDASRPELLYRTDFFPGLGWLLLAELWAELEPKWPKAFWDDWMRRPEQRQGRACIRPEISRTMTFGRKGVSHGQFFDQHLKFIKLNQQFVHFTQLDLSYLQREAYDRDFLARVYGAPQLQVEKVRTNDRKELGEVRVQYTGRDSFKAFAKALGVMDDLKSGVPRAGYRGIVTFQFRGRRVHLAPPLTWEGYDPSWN
UniProt Q9H944: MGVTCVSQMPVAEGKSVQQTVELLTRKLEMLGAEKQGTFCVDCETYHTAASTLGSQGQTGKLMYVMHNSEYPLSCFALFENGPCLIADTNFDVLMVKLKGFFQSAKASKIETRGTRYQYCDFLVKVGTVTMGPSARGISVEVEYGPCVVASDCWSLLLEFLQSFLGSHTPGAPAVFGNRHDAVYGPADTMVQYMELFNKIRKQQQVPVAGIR
UniProt Q9HCE5: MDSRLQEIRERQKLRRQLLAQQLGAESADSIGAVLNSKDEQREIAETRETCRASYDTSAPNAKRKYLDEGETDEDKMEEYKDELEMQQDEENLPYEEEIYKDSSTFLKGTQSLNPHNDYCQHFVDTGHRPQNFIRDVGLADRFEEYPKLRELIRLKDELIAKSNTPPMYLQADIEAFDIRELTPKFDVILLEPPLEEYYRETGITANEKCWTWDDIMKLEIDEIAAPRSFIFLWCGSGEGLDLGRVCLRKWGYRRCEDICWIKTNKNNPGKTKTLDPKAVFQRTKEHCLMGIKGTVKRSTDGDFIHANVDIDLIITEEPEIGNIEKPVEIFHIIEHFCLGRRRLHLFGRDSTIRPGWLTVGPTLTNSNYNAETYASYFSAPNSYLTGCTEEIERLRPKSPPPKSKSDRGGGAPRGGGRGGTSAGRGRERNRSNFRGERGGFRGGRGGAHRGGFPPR
UniProt Q9NWR8: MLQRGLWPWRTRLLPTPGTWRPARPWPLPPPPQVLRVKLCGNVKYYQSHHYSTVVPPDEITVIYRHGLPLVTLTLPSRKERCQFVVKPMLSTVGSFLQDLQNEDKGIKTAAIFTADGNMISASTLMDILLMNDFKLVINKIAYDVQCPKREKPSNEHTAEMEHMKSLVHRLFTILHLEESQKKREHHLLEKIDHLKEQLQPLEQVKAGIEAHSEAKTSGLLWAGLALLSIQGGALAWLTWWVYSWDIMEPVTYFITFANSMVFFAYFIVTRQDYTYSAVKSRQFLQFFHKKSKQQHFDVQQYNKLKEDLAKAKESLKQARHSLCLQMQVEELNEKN
UniProt Q15528: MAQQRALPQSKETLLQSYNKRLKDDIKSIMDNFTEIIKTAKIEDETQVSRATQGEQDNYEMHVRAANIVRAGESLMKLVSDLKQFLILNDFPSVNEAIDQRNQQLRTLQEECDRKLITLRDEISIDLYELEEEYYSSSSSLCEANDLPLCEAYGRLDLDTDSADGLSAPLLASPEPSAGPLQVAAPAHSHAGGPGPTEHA
UniProt P23368: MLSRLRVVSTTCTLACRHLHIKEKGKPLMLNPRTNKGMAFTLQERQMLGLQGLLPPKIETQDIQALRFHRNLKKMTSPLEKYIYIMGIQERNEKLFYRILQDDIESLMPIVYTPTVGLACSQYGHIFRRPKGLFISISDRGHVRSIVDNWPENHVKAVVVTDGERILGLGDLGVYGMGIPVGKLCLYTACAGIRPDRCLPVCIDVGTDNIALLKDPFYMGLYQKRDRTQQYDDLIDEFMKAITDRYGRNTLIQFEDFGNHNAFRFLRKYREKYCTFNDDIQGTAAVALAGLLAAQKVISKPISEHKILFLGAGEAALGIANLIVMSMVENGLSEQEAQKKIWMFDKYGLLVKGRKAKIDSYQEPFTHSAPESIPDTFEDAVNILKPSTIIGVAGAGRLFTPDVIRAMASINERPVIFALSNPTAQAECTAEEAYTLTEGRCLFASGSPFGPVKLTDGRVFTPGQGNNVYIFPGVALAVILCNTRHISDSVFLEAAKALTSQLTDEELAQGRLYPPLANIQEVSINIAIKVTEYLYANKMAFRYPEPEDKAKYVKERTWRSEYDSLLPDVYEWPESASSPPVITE
UniProt Q14676: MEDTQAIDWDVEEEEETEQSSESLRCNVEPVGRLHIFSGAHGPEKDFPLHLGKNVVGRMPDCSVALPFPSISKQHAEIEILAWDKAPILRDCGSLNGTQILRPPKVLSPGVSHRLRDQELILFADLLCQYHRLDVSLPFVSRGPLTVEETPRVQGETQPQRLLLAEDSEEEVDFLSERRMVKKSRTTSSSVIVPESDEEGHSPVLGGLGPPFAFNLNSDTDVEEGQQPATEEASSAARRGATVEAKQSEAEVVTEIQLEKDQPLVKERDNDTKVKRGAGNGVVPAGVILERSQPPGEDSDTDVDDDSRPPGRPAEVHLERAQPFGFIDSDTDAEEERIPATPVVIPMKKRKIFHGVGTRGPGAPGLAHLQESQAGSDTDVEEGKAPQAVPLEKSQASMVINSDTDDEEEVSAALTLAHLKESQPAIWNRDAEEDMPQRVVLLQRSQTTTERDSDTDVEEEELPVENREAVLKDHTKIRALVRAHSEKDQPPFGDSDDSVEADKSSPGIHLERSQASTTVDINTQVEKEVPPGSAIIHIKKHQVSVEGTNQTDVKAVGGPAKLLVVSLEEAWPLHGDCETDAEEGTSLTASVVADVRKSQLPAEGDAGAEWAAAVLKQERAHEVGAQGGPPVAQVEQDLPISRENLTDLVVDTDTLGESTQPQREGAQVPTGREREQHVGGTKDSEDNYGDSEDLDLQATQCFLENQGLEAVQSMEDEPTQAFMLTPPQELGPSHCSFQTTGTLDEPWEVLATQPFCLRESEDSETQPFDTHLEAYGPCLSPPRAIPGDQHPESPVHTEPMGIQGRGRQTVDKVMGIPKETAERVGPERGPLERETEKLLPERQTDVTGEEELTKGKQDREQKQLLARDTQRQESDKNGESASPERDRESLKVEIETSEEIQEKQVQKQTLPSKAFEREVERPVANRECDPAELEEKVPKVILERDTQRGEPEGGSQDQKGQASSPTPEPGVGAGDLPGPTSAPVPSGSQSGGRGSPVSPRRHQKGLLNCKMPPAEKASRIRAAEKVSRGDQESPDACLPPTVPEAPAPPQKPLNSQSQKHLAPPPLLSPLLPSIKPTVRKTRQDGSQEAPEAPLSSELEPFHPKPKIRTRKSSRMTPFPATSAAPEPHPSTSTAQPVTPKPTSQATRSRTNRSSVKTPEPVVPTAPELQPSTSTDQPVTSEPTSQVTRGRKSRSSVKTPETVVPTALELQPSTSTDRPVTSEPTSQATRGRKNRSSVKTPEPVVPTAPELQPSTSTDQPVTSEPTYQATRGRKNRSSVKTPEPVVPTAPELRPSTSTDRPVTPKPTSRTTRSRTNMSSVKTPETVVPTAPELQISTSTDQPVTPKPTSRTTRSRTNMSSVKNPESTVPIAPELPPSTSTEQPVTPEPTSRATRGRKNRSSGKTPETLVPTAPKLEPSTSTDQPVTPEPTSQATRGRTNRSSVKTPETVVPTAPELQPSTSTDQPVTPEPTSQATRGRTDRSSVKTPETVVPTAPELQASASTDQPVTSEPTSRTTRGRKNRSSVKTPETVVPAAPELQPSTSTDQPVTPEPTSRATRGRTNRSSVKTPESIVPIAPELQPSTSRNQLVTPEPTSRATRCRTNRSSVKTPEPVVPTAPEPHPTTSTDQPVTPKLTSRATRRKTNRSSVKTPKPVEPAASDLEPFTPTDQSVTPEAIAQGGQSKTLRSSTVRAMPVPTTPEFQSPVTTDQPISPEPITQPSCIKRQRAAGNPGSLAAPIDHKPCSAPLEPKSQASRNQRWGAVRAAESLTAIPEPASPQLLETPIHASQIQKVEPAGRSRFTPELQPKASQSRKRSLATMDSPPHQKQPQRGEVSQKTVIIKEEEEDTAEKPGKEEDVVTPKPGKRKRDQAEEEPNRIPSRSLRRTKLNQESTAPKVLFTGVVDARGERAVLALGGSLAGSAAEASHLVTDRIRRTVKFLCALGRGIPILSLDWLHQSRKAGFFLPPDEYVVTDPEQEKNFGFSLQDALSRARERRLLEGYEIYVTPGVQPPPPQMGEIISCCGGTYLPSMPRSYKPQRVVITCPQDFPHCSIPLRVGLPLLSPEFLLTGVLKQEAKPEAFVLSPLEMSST
UniProt Q9BUE0: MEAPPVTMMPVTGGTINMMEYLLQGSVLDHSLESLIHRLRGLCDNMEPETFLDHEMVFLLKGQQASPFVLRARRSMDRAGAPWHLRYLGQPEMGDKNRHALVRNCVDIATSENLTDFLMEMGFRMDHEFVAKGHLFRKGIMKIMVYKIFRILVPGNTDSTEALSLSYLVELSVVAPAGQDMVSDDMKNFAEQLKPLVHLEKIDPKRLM
UniProt Q9Y316: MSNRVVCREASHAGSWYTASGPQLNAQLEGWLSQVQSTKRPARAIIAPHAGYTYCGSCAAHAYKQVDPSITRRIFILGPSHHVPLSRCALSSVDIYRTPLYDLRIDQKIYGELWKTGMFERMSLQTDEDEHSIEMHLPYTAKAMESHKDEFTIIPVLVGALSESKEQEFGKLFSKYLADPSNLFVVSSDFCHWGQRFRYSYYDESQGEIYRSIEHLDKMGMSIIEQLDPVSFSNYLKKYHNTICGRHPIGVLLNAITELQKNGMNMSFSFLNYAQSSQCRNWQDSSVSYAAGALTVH

Compound in this experiment: C=CC(=O)N1CCC[C@@H](n2nc(-c3ccc(Oc4ccccc4)cc3)c3c(N)ncnc32)C1 [ibrutinib]
Put plainly: log2 fold change, soluble protein after heating vs DMSO (PISA); higher = thermal stabilisation; K562 cells, 10 uM, 30 min; active = over 0.2 and 3.5 SD of the protein, either way, in both replicates (recomputed). Put shortly: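 K562 cells (2×10^6 cells/mL) were treated with 10 μM compound for 30 min, and aliquots were heated for 3 min over 48°C-58°C. Pooled aliquots were extracted in PBS with 0.5% NP-40 at 4°C, and the supernatant after 21,000xg for 90 min was measured by TMTpro 16plex LC-MS/MS with channel sums equalised. Reported thermal stability, relative to control samples and from duplicates, is a log2 fold change.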
With MGAT4B isoform 3 (UniProt Q9UQ53), the log2 fold change was inactive: -0.063.

On to MBNL1 (UniProt Q9NR56), for which the log2 fold change was inactive: 0.003.

For MEF2D (UniProt Q14814), the log2 fold change was inactive: -0.057.

With MFSD10 (UniProt Q14728), the log2 fold change was inactive: 0.026.

Consider MCAM (UniProt P43121), for which the log2 fold change was inactive: 0.046.

As to METTL1 (UniProt Q9UBP6), the log2 fold change is inactive: 0.006.

Take MECP2 isoform 2 (UniProt P51608): the log2 fold change is inactive: 0.039.

MCM2 (UniProt P49736): the log2 fold change is inactive: -0.027.

Regarding MCM3 isoform 2 (UniProt P25205), the log2 fold change is inactive: 0.019.

As to METTL21A (UniProt Q8WXB1), the log2 fold change was inactive: 0.054.

Turning to MDN1 (UniProt Q9NU22), the log2 fold change is inactive: -0.046.

In the case of MGAT1 (UniProt P26572), the log2 fold change is inactive: 0.01.

METAP1D (UniProt Q6UB28): the log2 fold change is inactive: 0.017.

Regarding MED20 (UniProt Q9H944), the log2 fold change was inactive: -0.04.

Consider METTL14 (UniProt Q9HCE5), for which the log2 fold change is inactive: -0.038.

Consider MEAK7 (UniProt Q6P9B6), for which the log2 fold change was inactive: -0.041.

Regarding MCRIP1 (UniProt I3L4Q0), the log2 fold change was inactive: 0.024.

Turning to MCM5 (UniProt P33992), the log2 fold change was inactive: -0.025.

On to MCUB (UniProt Q9NWR8), for which the log2 fold change was inactive: -0.009.

As to MED22 (UniProt Q15528), the log2 fold change was inactive: 0.076.

Regarding ME2 (UniProt P23368), the log2 fold change was inactive: -0.039.

Consider MBOAT1 (UniProt Q6ZNC8), for which the log2 fold change is inactive: -0.2.

For MDC1 (UniProt Q14676), the log2 fold change was inactive: -0.013.

With MCMBP (UniProt Q9BTE3), the log2 fold change was inactive: -0.059.

For MATR3 (UniProt P43243), the log2 fold change was inactive: 0.046.

With MFN1 (UniProt Q8IWA4), the log2 fold change was inactive: -0.009.

As to MAST4 (UniProt O15021), the log2 fold change is inactive: -0.138.

In the case of MED18 (UniProt Q9BUE0), the log2 fold change is inactive: 0.

Consider MAT2A (UniProt P31153), for which the log2 fold change was inactive: -0.004.

For MAVS (UniProt Q7Z434), the log2 fold change was inactive: 0.002.

On to MEMO1 (UniProt Q9Y316), for which the log2 fold change was inactive: -0.04.

On to MGST3 (UniProt O14880), for which the log2 fold change was inactive: 0.042.

For the target MED15 (UniProt Q96RN5), the log2 fold change was inactive: -0.017.

On to MCFD2 (UniProt Q8NI22), for which the log2 fold change is inactive: -0.065.

With MARS2 (UniProt Q96GW9), the log2 fold change is inactive: 0.053.

Regarding MED14 (UniProt O60244), the log2 fold change is inactive: -0.063.

With MFGE8 (UniProt Q08431), the log2 fold change is inactive: 0.016.

As for MCTS1 isoform 3 (UniProt Q9ULC4), the log2 fold change is inactive: 0.025.

On to MCM6 (UniProt Q14566), for which the log2 fold change is inactive: -0.008.

Values taken from the supplement of paper PMC10849652.
